# Data taken from the supplement of paper PMC6411743.
# ± gives the standard deviation of the averaged measurements. Only a part is listed here, and it is no random draw.
# What was measured:
# Assay in all cases: NP40-soluble protein abundance relative to vehicle (solubility fold change) (ratio); higher = more soluble protein in presence of AMP-PNP
# ACAD9 = target: T1, ACAD9 (UniProt Q9H845)
# T1 sequence (whole entry): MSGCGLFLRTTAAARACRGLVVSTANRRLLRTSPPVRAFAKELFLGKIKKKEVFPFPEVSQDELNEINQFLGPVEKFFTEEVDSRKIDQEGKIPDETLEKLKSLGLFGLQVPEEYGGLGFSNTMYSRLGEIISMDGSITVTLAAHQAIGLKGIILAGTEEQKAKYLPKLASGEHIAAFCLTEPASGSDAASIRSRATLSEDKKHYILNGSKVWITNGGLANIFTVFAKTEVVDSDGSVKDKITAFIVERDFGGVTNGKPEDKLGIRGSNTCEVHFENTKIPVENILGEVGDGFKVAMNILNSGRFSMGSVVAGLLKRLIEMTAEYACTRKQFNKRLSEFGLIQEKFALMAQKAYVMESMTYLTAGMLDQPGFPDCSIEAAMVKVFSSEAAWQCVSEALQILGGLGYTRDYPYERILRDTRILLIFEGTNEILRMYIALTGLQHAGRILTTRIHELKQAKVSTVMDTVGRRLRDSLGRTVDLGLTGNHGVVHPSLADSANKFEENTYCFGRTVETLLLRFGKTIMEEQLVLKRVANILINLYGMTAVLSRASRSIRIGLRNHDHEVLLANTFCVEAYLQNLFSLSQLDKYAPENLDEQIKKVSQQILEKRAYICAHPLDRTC
# How it was run: (§1)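 Jurkat crude lysate prepared with a Dounce homogeniser was treated at eight concentrations spanning 0.1 to 10 mM, 10 min at room temperature then 3 min at 37 °C. Solubilisation with 0.8% NP40 and benzonase and ultracentrifugation preceded TMT labelling of the supernatant for LC-MS/MS. Fold change against the detergent-processed vehicle was determined per replicate from vsn-normalised intensities, across three independent experiments.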
# CSTF2T = target: T2, CSTF2T (UniProt Q9H0L4)
# T2 sequence (whole entry): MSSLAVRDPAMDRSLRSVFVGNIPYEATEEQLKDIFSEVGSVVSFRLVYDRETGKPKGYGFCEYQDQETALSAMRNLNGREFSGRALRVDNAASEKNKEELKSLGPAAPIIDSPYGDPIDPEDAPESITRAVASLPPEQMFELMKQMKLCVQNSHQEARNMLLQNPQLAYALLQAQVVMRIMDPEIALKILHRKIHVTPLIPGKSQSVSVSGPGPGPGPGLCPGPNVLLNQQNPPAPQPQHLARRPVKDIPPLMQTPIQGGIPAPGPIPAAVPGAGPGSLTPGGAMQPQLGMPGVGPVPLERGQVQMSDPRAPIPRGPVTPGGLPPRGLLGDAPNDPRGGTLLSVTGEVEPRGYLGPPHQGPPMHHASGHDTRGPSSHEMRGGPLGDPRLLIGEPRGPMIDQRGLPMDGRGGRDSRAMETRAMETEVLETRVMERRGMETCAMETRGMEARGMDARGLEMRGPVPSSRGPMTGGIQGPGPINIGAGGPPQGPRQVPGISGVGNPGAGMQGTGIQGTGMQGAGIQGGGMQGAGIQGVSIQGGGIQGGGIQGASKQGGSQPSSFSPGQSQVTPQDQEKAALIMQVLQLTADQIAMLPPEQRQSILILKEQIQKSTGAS
# How it was run: as §1
# DCP1A = target: T3, DCP1A (UniProt Q9NPI6)
# T3 sequence (whole entry): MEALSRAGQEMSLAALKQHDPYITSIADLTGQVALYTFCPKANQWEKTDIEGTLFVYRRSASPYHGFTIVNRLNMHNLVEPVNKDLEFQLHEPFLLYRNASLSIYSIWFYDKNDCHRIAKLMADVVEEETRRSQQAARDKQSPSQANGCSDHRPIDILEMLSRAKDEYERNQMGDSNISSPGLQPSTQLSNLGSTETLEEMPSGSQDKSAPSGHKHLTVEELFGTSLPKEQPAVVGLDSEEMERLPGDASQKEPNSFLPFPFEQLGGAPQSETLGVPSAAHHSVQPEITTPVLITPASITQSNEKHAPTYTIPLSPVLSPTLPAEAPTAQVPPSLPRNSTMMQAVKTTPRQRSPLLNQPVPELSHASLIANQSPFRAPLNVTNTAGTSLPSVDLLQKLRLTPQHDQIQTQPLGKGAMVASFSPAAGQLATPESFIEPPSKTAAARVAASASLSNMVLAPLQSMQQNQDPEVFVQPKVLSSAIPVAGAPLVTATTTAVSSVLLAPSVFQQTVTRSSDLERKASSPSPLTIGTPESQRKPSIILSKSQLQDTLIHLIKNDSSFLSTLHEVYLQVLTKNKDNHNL
# How it was run: as §1
# DNTTIP1 = target: T4, DNTTIP1 (UniProt Q9H147)
# T4 sequence (whole entry): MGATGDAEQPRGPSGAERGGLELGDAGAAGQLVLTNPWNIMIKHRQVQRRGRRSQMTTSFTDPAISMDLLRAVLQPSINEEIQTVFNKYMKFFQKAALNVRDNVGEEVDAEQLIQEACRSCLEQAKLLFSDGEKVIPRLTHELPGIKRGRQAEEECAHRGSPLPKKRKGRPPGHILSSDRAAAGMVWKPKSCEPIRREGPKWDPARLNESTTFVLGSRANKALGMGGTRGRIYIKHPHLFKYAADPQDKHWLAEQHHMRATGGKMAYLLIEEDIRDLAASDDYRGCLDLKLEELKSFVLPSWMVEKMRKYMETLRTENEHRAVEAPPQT
# How it was run: as §1
# PLEKHF2 = target: T5, PLEKHF2 (UniProt Q9H8W4)
# T5 sequence (whole entry): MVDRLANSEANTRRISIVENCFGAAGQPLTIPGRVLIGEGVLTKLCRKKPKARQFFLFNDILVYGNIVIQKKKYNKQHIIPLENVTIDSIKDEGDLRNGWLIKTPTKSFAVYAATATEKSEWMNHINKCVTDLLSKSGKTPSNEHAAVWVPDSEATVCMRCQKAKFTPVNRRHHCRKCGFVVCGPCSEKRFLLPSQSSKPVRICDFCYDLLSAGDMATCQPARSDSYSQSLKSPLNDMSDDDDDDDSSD
# How it was run: as §1
structure (smiles),measurement,setting,value
Nc1ncnc2c1ncn2[C@@H]1O[C@H](COP(=O)(O)OP(=O)(O)NP(=O)(O)O)[C@@H](O)[C@H]1O [adenylyl imidodiphosphate],NP40-soluble protein abundance,ACAD9; concentration: 1mM,0.96 ± 0.02
same,NP40-soluble protein abundance,ACAD9; concentration: 2mM,0.946 ± 0.027
same,NP40-soluble protein abundance,ACAD9; concentration: 4mM,0.924 ± 0.034
same,NP40-soluble protein abundance,ACAD9; concentration: 6mM,0.9939 ± 0.0021
same,NP40-soluble protein abundance,ACAD9; concentration: 8mM,0.965 ± 0.015
same,NP40-soluble protein abundance,ACAD9; concentration: 10mM,0.981 ± 0.055
same,NP40-soluble protein abundance,CSTF2T; concentration: 1mM,1.01 ± 0.029
same,NP40-soluble protein abundance,CSTF2T; concentration: 2mM,1.09 ± 0.085
same,NP40-soluble protein abundance,CSTF2T; concentration: 4mM,1.04 ± 0.014
same,NP40-soluble protein abundance,CSTF2T; concentration: 6mM,1.02 ± 0.036
same,NP40-soluble protein abundance,CSTF2T; concentration: 8mM,1.01 ± 0.037
same,NP40-soluble protein abundance,CSTF2T; concentration: 10mM,1 ± 0.023
same,NP40-soluble protein abundance,DCP1A; concentration: 1mM,1 ± 0.044
same,NP40-soluble protein abundance,DCP1A; concentration: 2mM,1.02 ± 0.011
same,NP40-soluble protein abundance,DCP1A; concentration: 4mM,1.02 ± 0.017
same,NP40-soluble protein abundance,DCP1A; concentration: 6mM,1.03 ± 0.037
same,NP40-soluble protein abundance,DCP1A; concentration: 8mM,0.998 ± 0.011
same,NP40-soluble protein abundance,DCP1A; concentration: 10mM,1.02 ± 0.023
same,NP40-soluble protein abundance,DNTTIP1; concentration: 1mM,1.03 ± 0.037
same,NP40-soluble protein abundance,DNTTIP1; concentration: 2mM,1.02 ± 0.042
same,NP40-soluble protein abundance,DNTTIP1; concentration: 4mM,1 ± 0.041
same,NP40-soluble protein abundance,DNTTIP1; concentration: 6mM,0.973 ± 0.017
same,NP40-soluble protein abundance,DNTTIP1; concentration: 8mM,0.958 ± 0.032
same,NP40-soluble protein abundance,DNTTIP1; concentration: 10mM,0.989 ± 0.035
same,NP40-soluble protein abundance,PLEKHF2; concentration: 1mM,0.981 ± 0.04
same,NP40-soluble protein abundance,PLEKHF2; concentration: 2mM,1.01 ± 0.06
same,NP40-soluble protein abundance,PLEKHF2; concentration: 4mM,1 ± 0.018
same,NP40-soluble protein abundance,PLEKHF2; concentration: 6mM,1 ± 0.075
same,NP40-soluble protein abundance,PLEKHF2; concentration: 8mM,1.01 ± 0.025
same,NP40-soluble protein abundance,PLEKHF2; concentration: 10mM,1.01 ± 0.029

# Laid out differently: entries from further up
structure (smiles) | measurement | setting | value
Nc1ncnc2c1ncn2[C@@H]1O[C@H](COP(=O)(O)OP(=O)(O)NP(=O)(O)O)[C@@H](O)[C@H]1O [adenylyl imidodiphosphate] | NP40-soluble protein abundance | CSTF2T; concentration: 6mM | 1.02 ± 0.036
same | NP40-soluble protein abundance | CSTF2T; concentration: 8mM | 1.01 ± 0.037
